The other results are listed elsewhere or left out.

Chains of the proteins cited; added tags and fusions are not shown. Lines headed by an entry give the natural chain unless they say otherwise; changes in a name come on top.
UniProt Q14011: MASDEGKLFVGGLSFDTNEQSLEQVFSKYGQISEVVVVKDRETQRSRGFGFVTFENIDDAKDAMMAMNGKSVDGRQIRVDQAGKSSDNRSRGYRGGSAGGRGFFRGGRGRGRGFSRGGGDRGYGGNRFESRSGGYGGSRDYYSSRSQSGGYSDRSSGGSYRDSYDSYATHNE
UniProt Q8N4Q1: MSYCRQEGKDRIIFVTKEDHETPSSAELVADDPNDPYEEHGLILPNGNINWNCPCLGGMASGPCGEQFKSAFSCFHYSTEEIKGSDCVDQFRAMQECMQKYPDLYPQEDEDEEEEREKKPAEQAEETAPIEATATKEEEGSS
UniProt Q9BY43: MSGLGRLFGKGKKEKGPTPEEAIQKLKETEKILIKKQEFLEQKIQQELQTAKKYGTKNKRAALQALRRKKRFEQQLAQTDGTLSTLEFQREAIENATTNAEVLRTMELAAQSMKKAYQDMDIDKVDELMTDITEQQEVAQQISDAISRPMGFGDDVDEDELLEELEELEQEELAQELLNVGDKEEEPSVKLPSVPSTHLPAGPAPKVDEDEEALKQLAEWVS
UniProt Q9NZZ3: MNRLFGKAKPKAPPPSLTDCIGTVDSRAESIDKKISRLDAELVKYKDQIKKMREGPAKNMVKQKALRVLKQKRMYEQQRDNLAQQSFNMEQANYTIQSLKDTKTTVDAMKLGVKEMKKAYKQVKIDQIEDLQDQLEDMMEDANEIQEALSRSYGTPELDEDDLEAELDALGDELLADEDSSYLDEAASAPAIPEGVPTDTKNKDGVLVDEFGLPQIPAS
UniProt Q96MX0: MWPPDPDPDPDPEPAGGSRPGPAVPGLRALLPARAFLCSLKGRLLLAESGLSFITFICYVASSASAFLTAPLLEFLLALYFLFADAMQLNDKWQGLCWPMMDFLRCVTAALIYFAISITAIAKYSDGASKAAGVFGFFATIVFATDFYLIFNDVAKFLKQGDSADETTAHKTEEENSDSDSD
UniProt Q8N5K1: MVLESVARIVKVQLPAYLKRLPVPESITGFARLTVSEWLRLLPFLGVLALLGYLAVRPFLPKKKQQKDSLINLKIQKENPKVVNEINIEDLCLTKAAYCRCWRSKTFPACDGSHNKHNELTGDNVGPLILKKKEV
UniProt O14646: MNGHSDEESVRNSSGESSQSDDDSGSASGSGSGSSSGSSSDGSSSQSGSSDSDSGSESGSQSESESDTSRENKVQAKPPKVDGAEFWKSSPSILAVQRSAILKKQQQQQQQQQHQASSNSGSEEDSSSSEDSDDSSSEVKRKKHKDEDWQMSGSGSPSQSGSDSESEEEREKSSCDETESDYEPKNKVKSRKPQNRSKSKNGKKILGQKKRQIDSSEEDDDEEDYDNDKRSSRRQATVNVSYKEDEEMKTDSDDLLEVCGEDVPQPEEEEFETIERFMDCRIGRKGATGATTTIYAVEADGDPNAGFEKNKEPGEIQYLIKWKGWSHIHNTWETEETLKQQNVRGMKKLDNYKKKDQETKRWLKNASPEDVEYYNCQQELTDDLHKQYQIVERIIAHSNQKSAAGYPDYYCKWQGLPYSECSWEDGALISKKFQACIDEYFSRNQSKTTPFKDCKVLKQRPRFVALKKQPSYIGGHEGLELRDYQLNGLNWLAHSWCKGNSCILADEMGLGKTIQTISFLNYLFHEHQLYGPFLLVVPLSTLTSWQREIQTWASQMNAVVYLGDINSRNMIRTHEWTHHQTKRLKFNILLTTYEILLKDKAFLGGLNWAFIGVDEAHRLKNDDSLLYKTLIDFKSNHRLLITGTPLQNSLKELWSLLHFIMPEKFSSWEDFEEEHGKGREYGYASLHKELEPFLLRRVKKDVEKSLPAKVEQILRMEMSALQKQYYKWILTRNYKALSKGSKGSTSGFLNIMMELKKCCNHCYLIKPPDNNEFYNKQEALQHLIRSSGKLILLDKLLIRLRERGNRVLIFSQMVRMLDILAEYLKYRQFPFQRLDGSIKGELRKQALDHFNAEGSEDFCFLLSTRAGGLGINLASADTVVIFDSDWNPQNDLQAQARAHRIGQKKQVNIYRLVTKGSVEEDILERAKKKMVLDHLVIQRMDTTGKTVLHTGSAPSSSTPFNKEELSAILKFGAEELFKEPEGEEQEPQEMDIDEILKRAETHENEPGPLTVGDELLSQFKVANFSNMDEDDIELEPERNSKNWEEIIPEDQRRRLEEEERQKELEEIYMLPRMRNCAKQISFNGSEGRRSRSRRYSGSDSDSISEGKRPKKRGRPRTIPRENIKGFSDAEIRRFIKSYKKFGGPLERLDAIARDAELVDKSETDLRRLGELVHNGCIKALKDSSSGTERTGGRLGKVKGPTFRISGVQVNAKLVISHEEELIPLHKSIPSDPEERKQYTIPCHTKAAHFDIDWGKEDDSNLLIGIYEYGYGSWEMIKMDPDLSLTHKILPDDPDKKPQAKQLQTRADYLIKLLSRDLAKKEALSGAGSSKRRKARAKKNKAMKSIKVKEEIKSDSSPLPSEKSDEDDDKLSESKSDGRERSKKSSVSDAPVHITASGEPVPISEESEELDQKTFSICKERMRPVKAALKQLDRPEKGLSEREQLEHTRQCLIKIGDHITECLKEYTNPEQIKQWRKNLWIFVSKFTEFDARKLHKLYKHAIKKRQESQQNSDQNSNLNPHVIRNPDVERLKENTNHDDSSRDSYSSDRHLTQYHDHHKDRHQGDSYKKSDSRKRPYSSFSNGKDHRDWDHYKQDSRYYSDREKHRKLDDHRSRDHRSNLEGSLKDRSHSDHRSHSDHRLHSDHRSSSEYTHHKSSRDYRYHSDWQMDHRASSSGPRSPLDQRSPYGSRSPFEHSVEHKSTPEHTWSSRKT
UniProt Q9P2D1: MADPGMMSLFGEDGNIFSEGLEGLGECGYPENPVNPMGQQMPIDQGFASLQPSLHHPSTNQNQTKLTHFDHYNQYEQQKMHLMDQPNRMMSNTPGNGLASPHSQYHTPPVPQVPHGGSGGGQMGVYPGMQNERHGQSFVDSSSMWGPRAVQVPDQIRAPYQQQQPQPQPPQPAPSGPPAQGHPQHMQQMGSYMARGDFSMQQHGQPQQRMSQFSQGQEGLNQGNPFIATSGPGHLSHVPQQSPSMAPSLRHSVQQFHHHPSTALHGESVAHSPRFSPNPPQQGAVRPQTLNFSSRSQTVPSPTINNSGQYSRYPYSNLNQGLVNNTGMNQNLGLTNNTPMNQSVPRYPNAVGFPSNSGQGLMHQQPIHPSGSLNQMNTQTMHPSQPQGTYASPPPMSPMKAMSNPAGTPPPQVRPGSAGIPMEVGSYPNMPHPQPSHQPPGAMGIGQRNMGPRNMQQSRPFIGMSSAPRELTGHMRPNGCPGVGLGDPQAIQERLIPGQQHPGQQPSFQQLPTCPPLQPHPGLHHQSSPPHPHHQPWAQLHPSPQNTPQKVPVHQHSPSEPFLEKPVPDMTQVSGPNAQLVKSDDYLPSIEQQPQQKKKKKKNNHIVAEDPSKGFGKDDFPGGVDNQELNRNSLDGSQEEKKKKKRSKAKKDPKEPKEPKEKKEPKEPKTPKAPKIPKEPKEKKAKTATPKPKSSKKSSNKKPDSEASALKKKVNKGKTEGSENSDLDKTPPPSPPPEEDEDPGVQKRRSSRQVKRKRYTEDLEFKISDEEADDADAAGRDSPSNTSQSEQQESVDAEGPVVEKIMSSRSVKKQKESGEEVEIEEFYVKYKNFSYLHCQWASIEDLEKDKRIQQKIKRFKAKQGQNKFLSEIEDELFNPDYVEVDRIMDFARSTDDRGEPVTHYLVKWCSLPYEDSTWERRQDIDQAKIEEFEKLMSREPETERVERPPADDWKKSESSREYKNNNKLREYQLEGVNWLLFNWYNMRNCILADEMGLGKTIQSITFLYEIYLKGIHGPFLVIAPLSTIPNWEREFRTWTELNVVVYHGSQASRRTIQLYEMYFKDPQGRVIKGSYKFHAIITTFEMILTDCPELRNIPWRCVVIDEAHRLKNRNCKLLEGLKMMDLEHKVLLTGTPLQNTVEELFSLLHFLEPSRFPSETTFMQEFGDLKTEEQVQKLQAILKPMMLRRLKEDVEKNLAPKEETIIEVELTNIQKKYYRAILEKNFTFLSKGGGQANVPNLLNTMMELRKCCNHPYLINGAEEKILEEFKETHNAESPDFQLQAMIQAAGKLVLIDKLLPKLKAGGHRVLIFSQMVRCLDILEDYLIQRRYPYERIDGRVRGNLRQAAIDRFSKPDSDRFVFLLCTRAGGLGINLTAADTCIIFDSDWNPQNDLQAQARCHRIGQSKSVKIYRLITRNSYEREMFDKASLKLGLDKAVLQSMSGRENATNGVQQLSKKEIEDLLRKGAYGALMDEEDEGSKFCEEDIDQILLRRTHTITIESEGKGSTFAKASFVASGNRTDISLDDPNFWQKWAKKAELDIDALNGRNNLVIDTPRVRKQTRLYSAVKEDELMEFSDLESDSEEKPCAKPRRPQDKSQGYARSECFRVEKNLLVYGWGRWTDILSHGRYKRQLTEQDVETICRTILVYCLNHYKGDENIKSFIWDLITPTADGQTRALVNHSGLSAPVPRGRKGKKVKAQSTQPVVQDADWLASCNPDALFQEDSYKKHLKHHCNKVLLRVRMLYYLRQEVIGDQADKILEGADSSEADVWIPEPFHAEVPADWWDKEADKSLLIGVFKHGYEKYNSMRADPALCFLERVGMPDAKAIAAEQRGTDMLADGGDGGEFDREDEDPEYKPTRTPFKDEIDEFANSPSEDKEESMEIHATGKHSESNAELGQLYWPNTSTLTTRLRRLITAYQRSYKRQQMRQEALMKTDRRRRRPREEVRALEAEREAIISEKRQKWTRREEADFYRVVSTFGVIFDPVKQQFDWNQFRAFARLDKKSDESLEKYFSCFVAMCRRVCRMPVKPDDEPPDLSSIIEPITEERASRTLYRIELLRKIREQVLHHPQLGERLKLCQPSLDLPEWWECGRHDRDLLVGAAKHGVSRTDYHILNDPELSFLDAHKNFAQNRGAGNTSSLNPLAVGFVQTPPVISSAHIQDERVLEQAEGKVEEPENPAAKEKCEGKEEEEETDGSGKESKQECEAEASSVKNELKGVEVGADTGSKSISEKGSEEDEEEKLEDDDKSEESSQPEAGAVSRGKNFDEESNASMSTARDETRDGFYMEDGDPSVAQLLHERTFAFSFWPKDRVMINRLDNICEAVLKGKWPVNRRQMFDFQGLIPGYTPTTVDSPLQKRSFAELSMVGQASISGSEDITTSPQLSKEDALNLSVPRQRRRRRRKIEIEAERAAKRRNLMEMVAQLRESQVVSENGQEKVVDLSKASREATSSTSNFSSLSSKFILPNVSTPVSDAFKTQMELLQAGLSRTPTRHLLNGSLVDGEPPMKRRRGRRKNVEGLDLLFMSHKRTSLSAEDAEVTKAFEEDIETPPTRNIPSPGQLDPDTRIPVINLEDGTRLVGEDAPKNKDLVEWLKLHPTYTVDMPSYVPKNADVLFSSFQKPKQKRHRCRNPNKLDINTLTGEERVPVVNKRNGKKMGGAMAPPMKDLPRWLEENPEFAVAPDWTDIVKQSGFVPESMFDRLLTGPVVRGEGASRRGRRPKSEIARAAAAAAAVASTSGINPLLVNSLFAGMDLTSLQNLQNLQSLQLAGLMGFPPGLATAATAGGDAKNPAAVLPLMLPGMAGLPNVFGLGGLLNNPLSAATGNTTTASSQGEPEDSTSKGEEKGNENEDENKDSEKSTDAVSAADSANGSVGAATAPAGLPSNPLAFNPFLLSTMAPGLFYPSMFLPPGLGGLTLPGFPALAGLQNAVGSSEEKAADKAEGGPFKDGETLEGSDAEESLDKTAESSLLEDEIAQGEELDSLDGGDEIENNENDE
UniProt O15111: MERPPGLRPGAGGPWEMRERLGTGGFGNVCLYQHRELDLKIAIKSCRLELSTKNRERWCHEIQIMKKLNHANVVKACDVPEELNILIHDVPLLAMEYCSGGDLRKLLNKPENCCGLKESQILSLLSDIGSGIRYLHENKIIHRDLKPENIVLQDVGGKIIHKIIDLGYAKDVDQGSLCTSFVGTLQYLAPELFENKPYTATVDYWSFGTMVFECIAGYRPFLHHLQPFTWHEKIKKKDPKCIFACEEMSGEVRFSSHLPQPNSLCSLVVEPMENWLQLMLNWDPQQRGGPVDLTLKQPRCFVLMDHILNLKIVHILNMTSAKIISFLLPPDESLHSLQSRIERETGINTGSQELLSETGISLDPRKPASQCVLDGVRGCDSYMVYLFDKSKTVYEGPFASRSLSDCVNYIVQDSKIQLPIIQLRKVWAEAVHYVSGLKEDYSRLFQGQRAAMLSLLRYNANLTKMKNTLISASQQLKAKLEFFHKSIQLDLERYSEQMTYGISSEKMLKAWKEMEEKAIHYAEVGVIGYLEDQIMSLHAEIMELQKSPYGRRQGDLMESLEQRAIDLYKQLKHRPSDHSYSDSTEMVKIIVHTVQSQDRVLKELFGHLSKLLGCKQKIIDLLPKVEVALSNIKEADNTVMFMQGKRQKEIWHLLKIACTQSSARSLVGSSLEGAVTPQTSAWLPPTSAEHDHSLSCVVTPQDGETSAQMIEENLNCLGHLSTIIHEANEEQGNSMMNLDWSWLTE

Compound in the test: C#Cc1cccc(Nc2ncnc3cc(OCCOC)c(OCCOC)cc23)c1 [erlotinib]
The test can be described thus: log2 fold change, soluble protein after heating vs DMSO (PISA); higher = thermal stabilisation; K562 lysate, 10 uM; active = over 0.2 and 3.5 SD of the protein, either way, in both replicates (recomputed). An outline of the steps:
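Following dounce homogenisation of K562 pellets in PBS pH 7.4 with 1 mM MgCl2, crude extract at 1 mg/mL protein was incubated for 30 min with 10 μM compound. Aliquots were then heated for 3 min over 48°C-58°C and pooled, NP-40 was added to 0.5% at 4°C, and soluble protein was recovered as the supernatant at 21,000xg for 90 min. Channel-sum-equalised TMTpro 16plex LC-MS/MS quantified this protein. Each value, from duplicates, is a log-two fold change in thermal stability relative to solvent controls.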
As to CIT isoform 4 (UniProt O14578), the log2 fold change is inactive: 0.045. Under CHEK1 (UniProt O14757) stands inactive: -0.048; under CHCHD2P9 (UniProt Q5T1J5), inactive: 0.02; under CIRBP (UniProt Q14011), inactive: 0.02. For the target CMIP (UniProt Q8IY22), the log2 fold change was inactive: 0.003. Under CHKA (UniProt P35790) stands inactive: -0.071; under CHCHD4 isoform 2 (UniProt Q8N4Q1), inactive: -0.069.

Consider CHM (UniProt P24386), for which the log2 fold change is inactive: 0.041. For CKM (UniProt P06732), the log2 fold change is inactive: 0.034.

Turning to CHID1 (UniProt Q9BWS9), the log2 fold change is inactive: -0.011.

For the target CMSS1 (UniProt Q9BQ75), the log2 fold change is inactive: -0.029. Take CHMP4A isoform 2 (UniProt Q9BY43): the log2 fold change is inactive: -0.046.

With CNBP isoform 4 (UniProt P62633), the log2 fold change was inactive: 0.045. CHMP5 (UniProt Q9NZZ3): the log2 fold change was inactive: -0.033.

Turning to CMC1 (UniProt Q7Z7K0), the log2 fold change is inactive: -0.008. In the case of CHCHD3 (UniProt Q9NX63) it was inactive: 0.011; in that of CMTM3 (UniProt Q96MX0), inactive: 0.002; in that of CIAO2B (UniProt Q9Y3D0), inactive: 0.055.

Regarding CKMT2 (UniProt P17540), the log2 fold change was inactive: 0.03. On to CHRAC1 (UniProt Q9NRG0), for which the log2 fold change is inactive: 0.059.

Consider CISD2 (UniProt Q8N5K1), for which the log2 fold change was inactive: 0.005. On to CIZ1 (UniProt Q9ULV3), for which the log2 fold change is inactive: -0.017. Turning to CHD1 (UniProt O14646), the log2 fold change was inactive: 0.126. In the case of CHURC1 isoform 2 (UniProt Q8WUH1), the log2 fold change is inactive: 0.05. Consider CIC (UniProt I3L2J0), for which the log2 fold change is inactive: 0.013.

Consider CKAP5 (UniProt Q14008), for which the log2 fold change is inactive: 0.018. CHD5 (UniProt Q8TDI0): the log2 fold change is inactive: 0.008.

Take CHMP7 (UniProt Q8WUX9): the log2 fold change was inactive: -0.003. Under CHD7 (UniProt Q9P2D1) stands inactive: -0.035; under CHD1L (UniProt Q86WJ1), inactive: -0.017; under CHD3 isoform 3 (UniProt Q12873), inactive: 0.003. In the case of CHKB (UniProt Q9Y259), the log2 fold change was inactive: -0.069. For CHUK (UniProt O15111), the log2 fold change was inactive: -0.005.

(Values after the supplement of paper PMC10849652.)
